Among the data in patent US5407823A, “Polypeptides having a dopaminergic receptor activity, nucleic acids coding for these polypeptides and use of these polypeptides for the screening of substances active on these polypeptides” (priority 1990, dated 1995) are Ki values, retold here.

Chains of the proteins cited; added tags and fusions are not shown.
UniProt P19020, whole entry: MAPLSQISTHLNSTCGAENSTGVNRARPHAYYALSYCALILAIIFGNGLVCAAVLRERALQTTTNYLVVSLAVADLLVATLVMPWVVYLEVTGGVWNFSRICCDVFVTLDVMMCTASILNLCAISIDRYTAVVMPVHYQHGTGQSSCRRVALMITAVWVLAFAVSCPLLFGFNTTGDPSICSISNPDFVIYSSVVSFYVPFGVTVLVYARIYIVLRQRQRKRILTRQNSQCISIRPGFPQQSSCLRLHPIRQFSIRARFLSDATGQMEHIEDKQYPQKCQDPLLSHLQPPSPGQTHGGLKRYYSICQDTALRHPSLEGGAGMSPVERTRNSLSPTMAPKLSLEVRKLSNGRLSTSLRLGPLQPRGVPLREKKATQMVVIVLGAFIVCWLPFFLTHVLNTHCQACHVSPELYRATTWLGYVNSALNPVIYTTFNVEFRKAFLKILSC

For the experiment, the target named is T1, D-3 receptor expressed in CHO cells (Rattus norvegicus, UniProt P19020).
T1 construct: expressed in transfected cells
The experiment can be described thus: Inhibition of 125I-iodosulpride binding to membranes of transfected CHO cells (D-3). An excerpt:
As far as the measurement of the affinity of the agonists or antagonists towards the polypeptides of the invention is concerned, it may be made under the following conditions:
The terms agonists and antagonists refer to the actions of the medicines on the D-2 receptors.
The β2 adrenergic receptor is excised from pSV β2 -MDH by digestions with HindIII and EcoRI and replaced by a SmaI-EcoRI restriction fragment of the clone of the D-2A receptor by using a blunt-ended HindIII nucleotide adaptor leading to the plasmid pSV D-2. The vector needed to express the D-3 receptor is obtained by replacing the HindIII-BglII restriction fragment of pSV D-2 by a EcoRI-BglII restriction fragment of the clone RT-PCR B, by using a HindIII-EcoRI oligonucleotide adaptor leading to the plasmid pSV D-3. […] The stable transfectants are selected in a culture medium (Dulbecco's Modified Eagle medium) not containing hypoxanthine and thymidine.

Molecules are shown by their SMILES.

Turning to `CSc1ccc2c(c1)N(CCC1CCCCN1C)c1ccccc1S2` (stereo not shown) [Thioridazine], the Ki (usually a measure of affinity in units of concentration, obtained from inhibition or displacement) amounted to 7.9 ± 0.8 nM.
